These results are taken from patent US20180311220A1, “TREATMENT OF CANCERS WITH ACQUIRED RESISTANCE TO KIT INHIBITORS” (Bayer HealthCare LLC, priority 2007, published 2018).

What all share (format): cell-based, murine
Experiment [1] relates to Ba/F3 cells expressing human c-KIT exon 11 deletion + Y823D. In words: Ba/F3 cell proliferation assay (CellTiter-Glo), c-KIT exon 11 deletion + Y823D. The settings on record: BaF3; Exon 11 + Y823D; n ≥ 3; 72 h incubation; read-out: Average IC50 for c-KIT-expressing Ba/F3 cellular proliferation, Exon 11 + Y823D. An excerpt:
(§1) The cDNA encoding full length human c-KIT with a deletion in exon 11 that removed amino acid residues 557-558 was ligated into the mammalian expression vector pClneo (Promega). Imatinib (Gleevec) -resistant variants of the KIT exon 11 deletion mutant were generated. All mutations were confirmed by DNA sequencing.
(§2) The expression vectors encoding the c-KIT exon 11 mutant or its Imatinib (Gleevec) -resistant mutant variants were transfected into Ba/F3 cells by electroporation. Selective pressure was applied to the transfected cells by removing IL-3 from the culture medium. After IL-independent populations, further selective pressure was applied by also growing the cells in the presence of 1 mg/mL G418. […] The stable pools were further characterized by sequencing genomic DNA to confirm the presence of the transfected c-KIT cDNA.
(§3) This assay utilizes cellular ATP as a marker for cell proliferation/viability. […] The cells were then incubated on a shaker for 5 minutes at room temperature, and luminescence was measured on a Victor 5 (Perkin Elmer) spectrophotometer.
(§4) Growth inhibition was measured by comparing luminescence signal from treated vs. untreated cells in assay plates, and the IC50 analysis of cell proliferation inhibition by compounds was analyzed using Analyze 5 in-house software. The IC50 values are mean values calculated from at least three experiments.
For orientation: Cellular ATP, detected with luciferase, serves as a proxy for viable cell number.

Experiment [2] relates to Ba/F3 cells expressing human c-KIT exon 11 deletion + N822K. The experiment can be described thus: Ba/F3 cell proliferation assay (CellTiter-Glo), c-KIT exon 11 deletion + N822K. The settings on record: BaF3; Exon 11 + N822K; n ≥ 3; 72 h incubation; read-out: Average IC50 for c-KIT-expressing Ba/F3 cellular proliferation, Exon 11 + N822K.
From the text: as §1, §2, §3, §4

Experiment [3] relates to Ba/F3 cells expressing human c-KIT exon 11 deletion + D816G. In words: Ba/F3 cell proliferation assay (CellTiter-Glo), c-KIT exon 11 deletion + D816G. The conditions noted are these: BaF3; Exon 11 + D816G; n ≥ 3; 72 h incubation; read-out: Average IC50 for c-KIT-expressing Ba/F3 cellular proliferation, Exon 11 + D816G.
From the text: as §1, §2, §3, §4

Experiment [4] relates to Ba/F3 cells expressing human c-KIT exon 11 deletion + V654A. In words: Ba/F3 cell proliferation assay (CellTiter-Glo), c-KIT exon 11 deletion + V654A. The conditions noted are these: BaF3; Exon 11 + V654A; n ≥ 3; 72 h incubation; read-out: Average IC50 for c-KIT-expressing Ba/F3 cellular proliferation, Eson 11 + V654A.
From the text: as §1, §2, §3, §4

Experiment [5] relates to Ba/F3 cells expressing human c-KIT exon 11 deletion + T6701. The experiment can be described thus: Ba/F3 cell proliferation assay (CellTiter-Glo), c-KIT exon 11 deletion + T6701. The settings on record: BaF3; Exon 11 +T6701; n ≥ 3; 72 h incubation; read-out: Average IC50 for c-KIT-expressing Ba/F3 cellular proliferation, Exon 11 +T6701.
From the text: as §1, §2, §3, §4

Experiment [6] deals with Ba/F3 cells expressing human c-KIT with exon 11 deletion (residues 557-558). The experiment can be described thus: Ba/F3 cell proliferation assay (CellTiter-Glo), c-KIT exon 11 deletion. The settings on record: BaF3, n ≥ 3, 72 h incubation, read-out: Average IC50 for c-KIT-expressing Ba/F3 cellular proliferation, Exon 11 Deletion.
From the text: as §1, §2, §3, §4

Consider `Cc1ccc(NC(=O)c2ccc(CN3CCN(C)CC3)cc2)cc1Nc1nccc(-c2cccnc2)n1` [Imatinib, imatinib], for which the IC50 in experiment [1] is 295 nM; in experiment [2], 221 nM; in experiment [3], 87 nM; in experiment [4], 168 nM; in experiment [5] it was greater than 10000 nM; in experiment [6], 5 nM.
